Laboratory results: the supplement of paper PMC8616043
Structures can show the parent of a compound that is named as a salt. The list shows a part of the results. Repeats in this data set agree poorly, so a single value says little.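 Human U-2 OS cells stably expressing a GFP sensor with a nuclear import signal and classical export signal were transfected to produce PR50, a 50-repeat proline–arginine dipeptide from ALS/FTD gene C9ORF72. Nuclear-minus-cytoplasm GFP was scaled from DMSO (low) to PR-only (high), scored against plate test wells; strongly negative scores marked PR-reversing hits.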

Tested on: U-2 OS NCT-C biosensor cells expressing PR50
Experiment: Z-score of normalised NCT-C biosensor translocation index in PR50-expressing cells; higher = more nuclear biosensor (more disrupted nuclear export)
Conditions: 3 µM; 24 h

Structure (SMILES) | Z-score
CSc1ccc2c(c1)C(N1CCN(C)CC1)Cc1ccccc1S2 (stereo not drawn) [Methiothepin mesylate] | inactive: 0.541
CC(C)(C)C(=O)Oc1ccc(S(=O)(=O)Nc2ccccc2C(=O)NCC(=O)O)cc1 [Sivelestat sodium salt hydrate] | inactive: -0.819
COc1cc(O)c2c(c1)oc(=O)c1c3cc(O)c(O)cc3oc21 [Wedelolactone] | inactive: -0.515
COC(=O)[C@H]1[C@H]2C[C@H]3c4[nH]c5ccccc5c4CCN3C[C@@H]2CC[C@@H]1O [Corynanthine] | inactive: 0.744
COC(c1ccccc1)(c1ccccc1)[C@H](Oc1nc(C)cc(C)n1)C(=O)O [Ambrisentan] | inactive: 0.00453
CC(C)N(C[C@H]1O[C@@H](n2cnc3c(N)ncnc32)[C@H](O)[C@@H]1O)[C@H]1C[C@@H](CCc2nc3cc(C(C)(C)C)ccc3[nH]2)C1 | inactive: -0.772
Cc1ccc(O)c(N=Nc2ccccc2)n1 | inactive: -0.652
C[N+]1(C)[C@@H]2CC[C@H]1C[C@@H](OC(=O)C(O)c1ccccc1)C2 (stereo partly drawn) [Homatropine Methylbromide] | inactive: 0.381
CC(C)(C(=O)O)c1ccc(C(O)CCCN2CCC(C(O)(c3ccccc3)c3ccccc3)CC2)cc1 (stereo not drawn) [Fexofenadine hydrochloride] | inactive: 1.23
CC(C)(C(=O)O)c1ccc(C(O)CCCN2CCC(C(O)(c3ccccc3)c3ccccc3)CC2)cc1 (stereo not drawn) [Fexofenadine·HCl] | inactive: 1.03
Fc1ccc(C(OCCCc2c[nH]cn2)c2ccc(F)cc2)cc1 | inactive: -1.1
CN(C)CCCN1c2ccccc2Sc2ccccc21 [Promazine hydrochloride] | inactive: -0.828
Cc1cc(C(C)(C)C)c(O)c(C)c1CC1=NCCN1 [Oxymetazoline hydrochloride] | inactive: -0.152
Cc1cn(C2C=CC(CO)O2)c(=O)[nH]c1=O (stereo not drawn) [2',3'-didehydro-3'- deoxythymidine] | inactive: 0.419
CC(CCc1ccccc1)NCC(O)c1ccc(O)c(C(N)=O)c1 (stereo not drawn) [Labetalol·HCl] | inactive: 0.404
CC(CCc1ccccc1)NCC(O)c1ccc(O)c(C(N)=O)c1 (stereo not drawn) [Labetalol hydrochloride] | inactive: -0.0864
CCOC(=O)[C@H](CCc1ccccc1)N[C@@H](C)C(=O)N1Cc2ccccc2C[C@H]1C(=O)O [Quinapril·HCl] | inactive: -0.0629
Cc1oncc1C(=O)Nc1ccc(C(F)(F)F)cc1 [Leflunomide] | inactive: 0.0486
O=C(O)c1cccnc1Nc1cccc(C(F)(F)F)c1 [Niflumic acid] | inactive: 0.193
CN(C)/N=N/c1[nH]cnc1C(N)=O [Dacarbazine] | inactive: 1.23
CCCCCC[C@@H]([C@@H](C)O)n1cnc2c(N)ncnc21 [Erythro-9-(2- hydroxy-3- nonyl)adenine HCl] | inactive: -0.153
CC1C(=O)OC2C(O)C34C5CC(C(C)(C)C)C36C(OC(=O)C6O)OC4(C(=O)O5)C12O (stereo not drawn) [Ginkgolide B] | inactive: 0.24
C[N+](C)(C)CCCCCC[N+](C)(C)C [Hexamethonium dichloride] | inactive: 0.132

Nothing new here: entries from further up.
Structure (SMILES) | Z-score
COC(=O)[C@H]1[C@H]2C[C@H]3c4[nH]c5ccccc5c4CCN3C[C@@H]2CC[C@@H]1O [Corynanthine] | inactive: 0.744
COC(c1ccccc1)(c1ccccc1)[C@H](Oc1nc(C)cc(C)n1)C(=O)O [Ambrisentan] | inactive: 0.00453
CC(C)N(C[C@H]1O[C@@H](n2cnc3c(N)ncnc32)[C@H](O)[C@@H]1O)[C@H]1C[C@@H](CCc2nc3cc(C(C)(C)C)ccc3[nH]2)C1 | inactive: -0.772
Cc1ccc(O)c(N=Nc2ccccc2)n1 | inactive: -0.652
C[N+]1(C)[C@@H]2CC[C@H]1C[C@@H](OC(=O)C(O)c1ccccc1)C2 (stereo partly drawn) [Homatropine Methylbromide] | inactive: 0.381

Later entries.

Structure (SMILES) | Z-score
C[N+](C)(C)CCCCCC[N+](C)(C)C [Hexamethonium bromide] | inactive: -0.237
O=c1cc(-c2ccc(O)cc2)oc2cc(O)c([C@@H]3O[C@H](CO)[C@@H](O)[C@H](O)[C@H]3O)c(O)c12 [Isovitexin] | inactive: 0.0047
C[C@@H]1O[C@@H](OC[C@H]2O[C@@H](Oc3cc(O)c4c(c3)O[C@H](c3ccc(O)cc3)CC4=O)[C@H](O)[C@@H](O)[C@@H]2O)[C@H](O)[C@H](O)[C@H]1O [Narirutin] | inactive: 0.151
COC(=O)Nc1nc2cc(C(=O)c3ccccc3)ccc2[nH]1 [Mebendazole] | inactive: -0.0259
Nc1nc2c(c(=O)[nH]1)C[C@@H](CCc1ccc(C(=O)N[C@@H](CCC(=O)O)C(=O)O)cc1)CN2 [Lometrexol hydrate] | inactive: 0.813
CC(C)c1ccc2oc3nc(N)c(C(=O)O)cc3c(=O)c2c1 [Amlexanox] | inactive: -0.0115
CN[C@@H]1[C@H](O[C@H]2[C@H](O[C@H]3[C@H](O)[C@@H](O)[C@H](N=C(N)N)[C@@H](O)[C@@H]3N=C(N)N)O[C@@H](C)[C@]2(O)C=O)O[C@@H](CO)[C@H](O)[C@H]1O [Streptomycin Sulfate] | inactive: 0.206
Nc1nc(Cl)nc2c1ncn2[C@H]1C[C@H](O)[C@@H](CO)O1 [Cladribine] | inactive: 0.554
CC1(C)CO[C@@H](CC(=O)O)CN1 | inactive: -0.472
O=C([C@@H](Cc1cccc(C(F)(F)F)c1)NS(=O)(=O)c1cc(F)c2c(c1)CCNC2)N1CCCC1 | inactive: -1.47
COc1cccc2c1[C@@H]1CN(CCCCn3c(=O)[nH]c4c(sc5ncc(-c6ccccc6)nc54)c3=O)C[C@@H]1CO2 [Fiduxosin hydrochloride] | inactive: -0.502
COc1cccc2c1C(=O)c1c(O)c3c(c(O)c1C2=O)C[C@@](O)(C(=O)CO)C[C@@H]3O[C@H]1C[C@H](N)[C@H](O)[C@H](C)O1 [Doxorubicin] | inactive: -0.271
COc1cccc2c1C(=O)c1c(O)c3c(c(O)c1C2=O)C[C@@](O)(C(=O)CO)C[C@@H]3O[C@H]1C[C@H](N)[C@H](O)[C@H](C)O1 [Doxorubicin·HCl] | inactive: 7.69
CC1(C)S[C@@H]2[C@H](NC(=O)[C@H](N)c3ccc(O)cc3)C(=O)N2[C@H]1C(=O)O [Amoxicillin] | inactive: 0.0587
Cc1nc(Nc2cnn(C3CCNCC3)c2)nc2c1N(C)C(=O)c1cc3ccccc3cc1N2C | inactive: 0.754
COc1cc(-c2oc3cc(O)ccc3c(=O)c2O)ccc1O [Geraldol] | inactive: -1.11
OCCOCCN1CCN(C2=Nc3ccccc3Sc3ccccc32)CC1 [Quetiapine Fumarate] | inactive: 0.313
N=C(N)c1ccc(OCCCCCOc2ccc(C(=N)N)cc2)cc1 [Pentamidine Isethionate] | inactive: -0.318
N=C(N)c1ccc(OCCCCCOc2ccc(C(=N)N)cc2)cc1 [Pentamidine isethionate] | inactive: -0.783
O=c1cc(-c2cccc3c2Sc2ccccc2S3)oc(N2CCOCC2)c1 | inactive: -0.291
Fc1ccc(C(c2ccc(F)cc2)N2CCN(C/C=C/c3ccccc3)CC2)cc1 [Flunarizine dihydrochloride] | inactive: -0.511
O=C(Nc1ccccc1)c1cc([N+](=O)[O-])ccc1Cl | inactive: 0.121
CCCc1cc(=O)[nH]c(=S)[nH]1 [Propylthiouracil] | inactive: -0.0195

Structure (SMILES) | Z-score
c1ccc2c(Cc3c[nH]c4ccccc34)c[nH]c2c1 [Diindolylmethane] | inactive: -0.563
CO/N=C(\C(=O)N[C@@H]1C(=O)N2C(C(=O)OCOC(=O)C(C)(C)C)=C(/C=C\c3scnc3C)CS[C@H]12)c1csc(N)n1 [Cefditoren Pivoxil] | inactive: -0.355
S=C(S)OC1CC2CC1C1CCCC21 [D-609 potassium] | inactive: 0.357
O=[N+]([O-])c1ccc(-c2nc(-c3ccc(F)cc3)c(-c3ccncc3)[nH]2)cc1 | inactive: 1.53
Oc1ncnc2[nH]ncc12 [Allopurinol] | inactive: 0.177
C[C@]12CCC(=O)C=C1CC[C@@H]1[C@@H]2[C@@H](O)C[C@@]2(C)[C@H]1CC[C@]2(O)C(=O)CO [Hydrocortisone] | inactive: 0.163
CNCCCC1c2ccccc2C=Cc2ccccc21 [Protriptyline·HCl] | inactive: -0.171
CNCCCC1c2ccccc2C=Cc2ccccc21 [Protriptyline hydrochloride] | inactive: -1.54
CCOC(=O)C1=C[C@@H](OC(CC)CC)[C@H](NC(C)=O)[C@@H](N)C1 [Oseltamivir Phosphate] | inactive: -0.305
CCOC(=O)C1=C[C@@H](OC(CC)CC)[C@H](NC(C)=O)[C@@H](N)C1 [Oseltamivir phosphate] | inactive: -0.268
CN(C)CC/C=C1/c2ccccc2Sc2ccc(Cl)cc21 [Chlorprothixene hydrochloride] | inactive: 2.23
CN(C)c1ccc(/C=C/C2=CC(=C/C=C3C=CC(=[N+](C)C)C=C3)/O[B-](F)(F)O2)cc1 | inactive: 0.629
Cn1cc(CNCC2CCN(c3ncc(C(=O)NO)cn3)CC2)c2ccccc21 | inactive: -0.33
CC(=O)[C@H]1CC[C@H]2[C@@H]3CCC4=CC(=O)CC[C@]4(C)[C@H]3CC[C@]12C [Progesterone] | inactive: -0.392
Nc1c(C(=O)Nc2c(F)cc(F)cc2Br)sc2nc3c(cc12)CCC3 | inactive: 0.231
CCOC(=O)CCNc1cc(N2CCc3ccccc3CC2)nc(-c2ccccn2)n1 | inactive: -1.82
CN(C)CCOC(c1ccccc1)c1ccccc1 [Diphenhydramine·HCl] | inactive: -0.69
CN(C)CCOC(c1ccccc1)c1ccccc1 [Diphenhydramine hydrochloride] | inactive: 0.894
CCCN(CCC)S(=O)(=O)c1ccc(C(=O)O)cc1 [Probenecid] | inactive: 0.035
O=c1[nH]c(=S)[nH]c(-c2ccccc2)c1Cc1c(O)ccc2ccccc12 [Cambinol] | inactive: 1.16
C[C@]12CC[C@@H]3c4ccc(O)cc4CC[C@H]3[C@@H]1CC[C@@H]2O [beta-Estradiol] | inactive: -0.164
C[C@]12CC[C@@H]3c4ccc(O)cc4CC[C@H]3[C@@H]1CC[C@@H]2O [Estradiol] | inactive: 0.295
